The other results are listed elsewhere or left out. Many values rest on one well or one pass, so single values are uncertain.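 Cells were imaged in 1,536-well plates, and nuclei stained with an antibody against cleaved PARP were counted against all DNA-stained nuclei to give the apoptosis fraction. Screening doses were chosen to leave most cells alive, and resting and induced cleaved-PARP levels differ strongly between cell lines.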
Legend:
Test in all cases: cleaved PARP positive nuclei fraction relative to DMSO control; melanoma cells; higher = more apoptosis
Details in all cases: library dose: low library concentration; 72 h
501Mel = system: 501Mel
A101D = system: A101D
A2058 = system: A2058
A375 = system: A375
C32 = system: C32
CBRC008 = system: CBRC008 (line from a melanoma biopsy)
CBRC014 = system: CBRC014 (line from a melanoma biopsy)
CBRC016 = system: CBRC016 (line from a melanoma biopsy)
CBRC017 = system: CBRC017 (line from a melanoma biopsy)
CBRC034 = system: CBRC034 (line from a melanoma biopsy)
COLO792 = system: COLO792
COLO800 = system: COLO800
COLO829 = system: COLO829
G361 = system: G361
IPC-298 = system: IPC-298
IST-MEL1 = system: IST-MEL1
LB2518-MEL = system: LB2518-MEL
LOXIMVI = system: LOXIMVI
MEL-HO = system: MEL-HO

SMILES | cleaved PARP positive nuclei fraction (501Mel) [%] | cleaved PARP positive nuclei fraction (A101D) [%] | cleaved PARP positive nuclei fraction (A2058) [%] | cleaved PARP positive nuclei fraction (A375) [%] | cleaved PARP positive nuclei fraction (C32) [%] | cleaved PARP positive nuclei fraction (CBRC008) [%] | cleaved PARP positive nuclei fraction (CBRC014) [%] | cleaved PARP positive nuclei fraction (CBRC016) [%] | cleaved PARP positive nuclei fraction (CBRC017) [%] | cleaved PARP positive nuclei fraction (CBRC034) [%] | cleaved PARP positive nuclei fraction (COLO792) [%] | cleaved PARP positive nuclei fraction (COLO800) [%] | cleaved PARP positive nuclei fraction (COLO829) [%] | cleaved PARP positive nuclei fraction (G361) [%] | cleaved PARP positive nuclei fraction (IPC-298) [%] | cleaved PARP positive nuclei fraction (IST-MEL1) [%] | cleaved PARP positive nuclei fraction (LB2518-MEL) [%] | cleaved PARP positive nuclei fraction (LOXIMVI) [%] | cleaved PARP positive nuclei fraction (MEL-HO) [%]
CN1CCN(c2ccc3nc(-c4c(N)c5c(F)cccc5[nH]c4=O)[nH]c3c2)CC1 [Dovitinib] + C#Cc1cccc(Nc2ncnc3cc(OCCOC)c(OCCOC)cc23)c1 [erlotinib] (first compound 0.1 µM, partner dose 0.8 µM) | 76.5 | 91.9 | 128 | 95.6 | 69.4 | 177 | 89.8 | 81.1 | 135 | 135 | 79 | 144 | 95 | 127 | 42.1 | 64.1 | 119 | 168 | 161
CS(=O)(=O)CCNCc1ccc(-c2ccc3ncnc(Nc4ccc(OCc5cccc(F)c5)c(Cl)c4)c3c2)o1 [lapatinib] + Nc1ccn([C@@H]2O[C@H](CO)[C@@H](O)C2(F)F)c(=O)n1 [gemcitabine] (first compound 0.8 µM, partner dose 0.0004 µM) | 124 | 267 | 73.3 | 266 | 65.7 | 112 | 115 | 52 | 234 | 67.8 | 106 | 114 | 166 | 95.5 | 46.1 | 63.2 | 121 | 193 | 407
C[C@@H](Oc1cc(-c2cnn(C3CCNCC3)c2)cnc1N)c1c(Cl)ccc(F)c1Cl [Crizotinib] + O=C(O)c1ccc2c(c1)nc(Nc1cccc(Cl)c1)c1ccncc12 [CX4945] (first compound 0.2 µM, partner dose 0.4 µM) | 73 | 105 | 92.3 | 193 | 86.5 | 42.1 | 103 | 168 | 117 | 335 | 102 | 94.1 | 140 | 112 | 42.9 | 61.3 | 125 | 72.5 | 138
O=C(O)[C@@H]1[O][Sb](=[O])([O][Sb]2(=[O])[O][C@H]([C@H](O)CO)[C@H](O)[C@H](C(=O)O)[O]2)[O][C@H]([C@H](O)CO)[C@@H]1O (stereo partly specified) [stibogluconate] + OCc1c[nH]c2ccccc12 [Indole-3-carbinol] (first compound 2 µM, partner dose 0.8 µM) | 221 | 30.1 | 51.3 | 103 | 77.6 | 129 | 79.4 | 90 | 68.2 | 44.5 | 48.2 | 132 | 184 | 95.2 | 59.5 | 269 | 85.9 | 127 | 44.8
